Binding data for two molecules are collected here from article PMC7424762.

Results are given in words; binding and its absence hold for the method and conditions named. Binding seen in cells or lysates may run through a third protein. Binding calls can cover weak binding; strength is not graded here.

The target of assay [1] is T1, like AP180 (lap), the Drosophila PICALM orthologue (Drosophila (endogenous in adult fly heads)) (UniProt Q9VI75).
T1 sequence: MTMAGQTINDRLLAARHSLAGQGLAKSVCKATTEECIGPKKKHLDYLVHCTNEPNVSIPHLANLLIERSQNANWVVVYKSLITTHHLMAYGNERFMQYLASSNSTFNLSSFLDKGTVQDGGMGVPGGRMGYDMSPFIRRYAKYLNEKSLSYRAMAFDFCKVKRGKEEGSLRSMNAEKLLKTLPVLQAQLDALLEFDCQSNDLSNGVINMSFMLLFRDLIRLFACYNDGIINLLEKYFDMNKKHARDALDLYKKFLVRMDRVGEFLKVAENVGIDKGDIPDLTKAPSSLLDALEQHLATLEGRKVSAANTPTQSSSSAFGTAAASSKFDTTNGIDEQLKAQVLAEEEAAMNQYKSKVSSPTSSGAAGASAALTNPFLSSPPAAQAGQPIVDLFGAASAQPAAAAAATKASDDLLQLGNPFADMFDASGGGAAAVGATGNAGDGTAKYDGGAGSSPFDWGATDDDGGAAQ
The assay can be described thus: co-IP; lysate of 40 heads of wild-type (w^Dah) adult flies; lysis buffer 50 mM Tris pH 7.5, 150 mM NaCl, 0.5% NP-40; protein G Dynabeads cross-linked with anti-PICALM or anti-dVGlut antibody, overnight at 4°C; bead-only control; Western blot for the partner; run in duplicate. Background: A western blot detects proteins with antibodies after separation by electrophoresis.

The target in assay [2] is vesicular glutamate transporter (VGlut) (Drosophila (endogenous in adult fly heads)). The description is as above.

As to vesicular glutamate transporter (VGlut), in assay [1], the binding result was “binds”.

B1: like AP180 (lap), the Drosophila PICALM orthologue (protein, UniProt Q9VI75 1-468)
chain: T1 sequence
In the case of B1, in assay [2], the binding entry is given as “binds”.
